Test results reported in the supplement of paper PMC10338343.
± gives the standard deviation. The list shows a part of the results, in another mix than the full data. Many entries were measured with a wide error.

test system: MIWI (PIWIL1) piRISC loaded with L1MC piRNA (30 nt); assay: pre-steady-state target cleavage rate (min^-1); MIWI and MILI are mouse PIWI proteins and EfPiwi is from a freshwater sponge; tags in brackets are library labels; higher = faster piRNA-guided slicing of the target; settings: guide: L1MC piRNA 5'p-UAACUAAAUACUAUGCAAGCUGUAGGUCCU; auxiliary factor: 500 nM mouse GTSF1
Method in brief: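 For Cleave-'n-Seq, a transcribed, DNA-blocked target RNA library […] met 1 nM active affinity-purified piRISC with one synthetic guide at 33 °C for 0–8 or 0–960 min in HEPES–potassium acetate buffer, with or without 500 nM GTSF1 partner protein. Uncleaved targets were sequenced and normalised to depth and weakly complementary targets, with three trials pooled and k3 capped at 0.0001 min^-1. A burst-and-steady-state fit supplied the pre-steady-state cleavage rate.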
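Further: 1 nM active piRISC with 0.1 nM target library at 33 °C single turnover.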

| Sequence | pre-steady-state target cleavage rate |
| --- | --- |
| UCCACCUACAGGUUGCAUAGUAUUUACAAA | 0.336 ± 0.052 |
| UCGACCUACAGCUUGCAAAGUAUAUAGUUA | 0.855 ± 0.055 |
| UGCUGCUACAGCUUGCAUAGUAUUUAGUUA | 1.55 ± 0.058 |
| UGGACCUGACAGCUUGCAUAGUAUUUAGUUA | 1.56 ± 0.12 |
| UCCAGCUACAGCUUGCAUAGUAUUUAGUUA | 0.682 ± 0.042 |
| UCCUGCAACAGCUUGCAAAGUAUUUAGUUA | 1.32 ± 0.076 |
| UGCACCAACAGCUUGCAUAGUAUUUAGUUA | 1.23 ± 0.056 |
| UCCAACUACAGCUUGCAUAGUAUUUAGUUA | 0.646 ± 0.038 |
| AGGACCUACAGCUUGCUUAGUAUUUAGAAA | 0.486 ± 0.063 |
| UCGACCAACAGCUUGGAUAGUAUUUAGUUA | 1.67 ± 0.045 |
| UCGACCUACAGCUUGCGAUAGUAUUUAGUUA | 0.0797 ± 0.02 |
| UCCUGGAUGUCGAUGCAUAGUAUUUAGUA | 0.0012 ± 0.0081 |
| AGGACCUACAGCUUGCAUAGUAAUUAGAAA | 0.475 ± 0.071 |
| UCCUGGAUGUCGAACCAUAGUUUUUAGUAA | 0.000211 ± 0.019 |
| AGGAGCAACAGCUUGCAUAGUAUUUAGUUA | 1.67 ± 0.069 |
| AGGACGAUCAGCUUGCAUAGUAUUUAGUAA | 1.02 ± 0.12 |
| UCCACCUACAGCUUGGAUAGUAUUUUCAAA | 0.0295 ± 0.012 |
| UCGACCUACAGCUUGCAUAGUAUUGAGUUA | 0.499 ± 0.042 |
| AGGACCUACAGCUCGCAUAGUAUUUAGUUA | 1.35 ± 0.068 |
| UGGACCUACAGCUUGCAUAGAUAUUACAAA | 0.0031 ± 0.004 |

| Sequence | pre-steady-state target cleavage rate |
| --- | --- |
| UGGACCUUCAGCUUGCAUAGUAUUUAGUAA | 1.07 ± 0.064 |
| UCCACCUACAGCUUAGCAUAGUAUUUAGUUA | 1.02 ± 0.03 |
| UCGACCUCAGCUUGCAUAGUAUUUAGUUA | 1.38 ± 0.056 |
| UGGACCUACAGCUUGCUAAGUAUUUAGUUA | 0.2 ± 0.022 |
| AGGACCUACCGCUUGCAUAGUAUUUAGUUA | 1.43 ± 0.082 |
| UCGACCUACAGCAAGCAUAGUAUUUAGUUA | 1.4 ± 0.083 |
| UGGACGAUCAGCUUGCAUAGUAUUUAGUUA | 1.47 ± 0.071 |
| UGGACCUACAGCUUGCAAUCUAUUUACAAA | 0.00236 ± 0.0045 |
| AGGACCUACAGCAAGCAUAGUAUUUAGUUA | 1.2 ± 0.069 |
| UCCACCAACUGCUUGCAUAGUAUUUAGUUA | 0.828 ± 0.036 |
| UGGACCAACAGCUUGCAUAGUAUUUACUUA | 0.299 ± 0.018 |
| UGGACCUAGAGCUUGCUUAGUAUUUAGUUA | 1.18 ± 0.095 |
| UCCAGCUACAGCUUGCAUAGUUUUUAGUUA | 0.253 ± 0.026 |
| UCCUGCUACAGCAUGCAUAGUAUUUAGUAA | 0.655 ± 0.063 |
| AGGACCUACAGCUUGCAAAGUAUUUAGUUA | 1.26 ± 0.053 |
| UCCUGGAUGUCGUUGCAAGUAUUUAGUUA | 0.00109 ± 0.0072 |
| UCGACCUACAGCUUGCUUAGUAUAUAGUUA | 0.879 ± 0.063 |
| AGGUGCUACAGCUUGCAUAGUAUUUAGUUA | 1.23 ± 0.064 |
| UGGACCUACAGCUUGACAUAGUAUUUAGUUA | 0.986 ± 0.1 |
| UCCUGGAUGUCGAUGGAUACUAUUUAGUUA | 0.000383 ± 0.017 |

same assay, conditions: guide: L1MC piRNA 5'p-UAACUAAAUACUAUGCAAGCUGUAGGUCCU; auxiliary factor: none (no GTSF1)

| Sequence | pre-steady-state target cleavage rate |
| --- | --- |
| UCCACCUACAGGUUGCAUAGUAUUUACAAA | 0.00135 ± 0.004 |
| UCGACCUACAGCUUGCAAAGUAUAUAGUUA | 0.0157 ± 0.0033 |
| UGCUGCUACAGCUUGCAUAGUAUUUAGUUA | 0.0595 ± 0.011 |
| UGGACCUGACAGCUUGCAUAGUAUUUAGUUA | 0.0824 ± 0.017 |
| UCCAGCUACAGCUUGCAUAGUAUUUAGUUA | 0.0438 ± 0.0056 |
| UCCUGCAACAGCUUGCAAAGUAUUUAGUUA | 0.0463 ± 0.01 |
| UGCACCAACAGCUUGCAUAGUAUUUAGUUA | 0.0613 ± 0.0098 |
| UCCAACUACAGCUUGCAUAGUAUUUAGUUA | 0.0478 ± 0.0076 |
| AGGACCUACAGCUUGCUUAGUAUUUAGAAA | 0.00737 ± 0.0028 |
| UCGACCAACAGCUUGGAUAGUAUUUAGUUA | 0.0693 ± 0.011 |
| UCGACCUACAGCUUGCGAUAGUAUUUAGUUA | 0.00114 ± 0.0072 |
| UCCUGGAUGUCGAUGCAUAGUAUUUAGUA | 0.00194 ± 0.0037 |
| AGGACCUACAGCUUGCAUAGUAAUUAGAAA | 0.00445 ± 0.0038 |
| UCCUGGAUGUCGAACCAUAGUUUUUAGUAA | 0.000321 ± 0.015 |
| AGGAGCAACAGCUUGCAUAGUAUUUAGUUA | 0.0907 ± 0.016 |
| AGGACGAUCAGCUUGCAUAGUAUUUAGUAA | 0.0692 ± 0.015 |
| UCCACCUACAGCUUGGAUAGUAUUUUCAAA | 0.000834 ± 0.0047 |
| UCGACCUACAGCUUGCAUAGUAUUGAGUUA | 0.0477 ± 0.0089 |
| AGGACCUACAGCUCGCAUAGUAUUUAGUUA | 0.0694 ± 0.013 |
| UGGACCUACAGCUUGCAUAGAUAUUACAAA | 0.000159 ± 0.016 |

| Sequence | pre-steady-state target cleavage rate |
| --- | --- |
| UGGACCUUCAGCUUGCAUAGUAUUUAGUAA | 0.0524 ± 0.011 |
| UCCACCUACAGCUUAGCAUAGUAUUUAGUUA | 0.0144 ± 0.0034 |
| UCGACCUCAGCUUGCAUAGUAUUUAGUUA | 0.064 ± 0.013 |
| UGGACCUACAGCUUGCUAAGUAUUUAGUUA | 0.00384 ± 0.002 |
| AGGACCUACCGCUUGCAUAGUAUUUAGUUA | 0.0866 ± 0.017 |
| UCGACCUACAGCAAGCAUAGUAUUUAGUUA | 0.00748 ± 0.0028 |
| UGGACGAUCAGCUUGCAUAGUAUUUAGUUA | 0.0852 ± 0.016 |
| UGGACCUACAGCUUGCAAUCUAUUUACAAA | 0.000202 ± 0.014 |
| AGGACCUACAGCAAGCAUAGUAUUUAGUUA | 0.0105 ± 0.0035 |
| UCCACCAACUGCUUGCAUAGUAUUUAGUUA | 0.0532 ± 0.0097 |
| UGGACCAACAGCUUGCAUAGUAUUUACUUA | 0.0367 ± 0.0063 |
| UGGACCUAGAGCUUGCUUAGUAUUUAGUUA | 0.0321 ± 0.0069 |
| UCCAGCUACAGCUUGCAUAGUUUUUAGUUA | 0.0203 ± 0.0032 |
| UCCUGCUACAGCAUGCAUAGUAUUUAGUAA | 0.00614 ± 0.0024 |
| AGGACCUACAGCUUGCAAAGUAUUUAGUUA | 0.0478 ± 0.0089 |
| UCCUGGAUGUCGUUGCAAGUAUUUAGUUA | 0.00237 ± 0.0034 |
| UCGACCUACAGCUUGCUUAGUAUAUAGUUA | 0.0168 ± 0.004 |
| AGGUGCUACAGCUUGCAUAGUAUUUAGUUA | 0.0832 ± 0.016 |
| UGGACCUACAGCUUGACAUAGUAUUUAGUUA | 0.00706 ± 0.0031 |
| UCCUGGAUGUCGAUGGAUACUAUUUAGUUA | 0.000394 ± 0.013 |
